No constants are given. Whether binding was seen depends on the method and setting. In cells and extracts the contact can be indirect. Some results given as binding are weak or reduced against the parent protein; the word gives no strength.
Legend:
[1] = target: GST-Crk-N terminal SH3 domain (UniProt P46108); test: GST pull-down, lysate in SDS containing RIPA buffer, beads carrying GST-Crk-N terminal SH3 domain
[2] = target: GST-Crk-N terminal SH3 domain (UniProt P46108); test: summary sentence of Example 2 (GST pull-down)

Sequences of proteins named here, by UniProt entry; tags and fusion partners are left off. A change or cut given only in a name is not applied to a line headed by its entry. Residues count along the entry.
UniProt P46108, residues 132-192: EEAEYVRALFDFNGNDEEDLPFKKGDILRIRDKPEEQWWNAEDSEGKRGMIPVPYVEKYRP
UniProt Q8N1I0: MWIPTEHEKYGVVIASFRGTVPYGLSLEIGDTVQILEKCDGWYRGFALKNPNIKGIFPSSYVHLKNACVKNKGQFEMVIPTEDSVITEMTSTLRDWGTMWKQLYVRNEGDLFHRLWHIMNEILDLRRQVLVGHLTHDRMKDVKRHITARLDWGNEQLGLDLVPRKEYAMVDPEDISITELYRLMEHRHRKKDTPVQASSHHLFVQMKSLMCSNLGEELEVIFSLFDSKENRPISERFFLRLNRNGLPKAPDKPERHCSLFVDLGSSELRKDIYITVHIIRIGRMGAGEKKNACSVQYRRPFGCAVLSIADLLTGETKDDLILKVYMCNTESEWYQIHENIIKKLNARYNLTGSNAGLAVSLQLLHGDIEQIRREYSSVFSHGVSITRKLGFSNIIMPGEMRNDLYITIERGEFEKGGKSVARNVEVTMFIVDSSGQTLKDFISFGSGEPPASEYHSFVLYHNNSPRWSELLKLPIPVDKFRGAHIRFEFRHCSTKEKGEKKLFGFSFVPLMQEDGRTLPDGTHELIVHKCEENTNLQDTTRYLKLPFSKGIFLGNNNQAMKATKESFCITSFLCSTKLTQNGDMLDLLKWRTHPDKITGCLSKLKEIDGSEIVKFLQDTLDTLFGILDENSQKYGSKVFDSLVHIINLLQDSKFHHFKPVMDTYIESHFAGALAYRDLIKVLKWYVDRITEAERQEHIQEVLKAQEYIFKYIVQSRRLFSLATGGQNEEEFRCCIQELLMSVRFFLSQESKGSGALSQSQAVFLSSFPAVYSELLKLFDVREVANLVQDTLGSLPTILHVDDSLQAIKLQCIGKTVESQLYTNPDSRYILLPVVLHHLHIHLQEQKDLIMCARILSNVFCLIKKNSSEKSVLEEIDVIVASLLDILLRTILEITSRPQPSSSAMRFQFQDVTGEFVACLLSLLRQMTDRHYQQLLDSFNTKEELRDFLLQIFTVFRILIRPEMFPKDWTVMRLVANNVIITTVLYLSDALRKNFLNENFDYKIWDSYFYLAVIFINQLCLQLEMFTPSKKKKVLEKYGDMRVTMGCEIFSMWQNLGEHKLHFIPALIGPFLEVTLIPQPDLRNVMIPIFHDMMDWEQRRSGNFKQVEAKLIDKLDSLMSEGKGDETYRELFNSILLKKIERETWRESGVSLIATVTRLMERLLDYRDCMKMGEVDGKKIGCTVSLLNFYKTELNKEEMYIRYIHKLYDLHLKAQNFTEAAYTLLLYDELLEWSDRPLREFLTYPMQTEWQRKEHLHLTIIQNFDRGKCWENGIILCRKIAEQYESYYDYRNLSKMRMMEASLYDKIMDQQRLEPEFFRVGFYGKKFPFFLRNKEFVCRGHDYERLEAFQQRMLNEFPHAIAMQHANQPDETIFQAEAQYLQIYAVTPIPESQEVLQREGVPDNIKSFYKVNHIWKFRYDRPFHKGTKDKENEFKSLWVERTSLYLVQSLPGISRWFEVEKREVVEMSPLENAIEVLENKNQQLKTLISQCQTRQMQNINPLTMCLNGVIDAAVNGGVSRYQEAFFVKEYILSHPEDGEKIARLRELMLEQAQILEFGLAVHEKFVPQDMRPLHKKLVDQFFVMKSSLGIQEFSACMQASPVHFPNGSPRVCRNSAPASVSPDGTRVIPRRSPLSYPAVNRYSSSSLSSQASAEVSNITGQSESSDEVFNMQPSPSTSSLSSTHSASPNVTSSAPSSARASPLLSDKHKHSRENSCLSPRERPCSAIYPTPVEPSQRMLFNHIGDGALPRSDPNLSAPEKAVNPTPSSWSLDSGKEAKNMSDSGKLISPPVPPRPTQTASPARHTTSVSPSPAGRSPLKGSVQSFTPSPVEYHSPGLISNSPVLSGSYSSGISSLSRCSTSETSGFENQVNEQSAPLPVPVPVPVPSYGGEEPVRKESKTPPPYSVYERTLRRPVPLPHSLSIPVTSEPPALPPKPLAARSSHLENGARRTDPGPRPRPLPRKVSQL

| binding [1] | binding [2] | Substance |
| --- | --- | --- |
| binds |  | DOS-SSB (alternatively spliced human DOS protein of 1928 amino acids, without Src SH3 domain binding site), epitope tagged (from UniProt Q8N1I0 1-1966) |
| binds | binds | DOS+SSB (human DOS protein of 1966 amino acids, with Src SH3 domain binding site), epitope tagged (from UniProt Q8N1I0 1-1966) |

Reference: patent US20060041111A1
